Assay results: PubChem BioAssay AID1671190 (National Center for Advancing Translational Sciences (NCATS), 2021)
Several values for one entry are separate records, joined by “and”; a condition that tells them apart may be missing. Equal entries are not always repeated. Among all 580,000 compounds or so, about 6,100 (1.1%) were called active. Inconclusive results, whose numbers are uncertain, are shown with a selection of clear calls. Calls follow the shape of the dose curve; as a rule, active = well fitted inhibition curve with a large enough effect; inconclusive = small, poorly fitted or top-dose-only effect, or another doubt; inactive = no such curve, though single readings can be large or run the other way. Where the call is inconclusive, the potency comes from a doubtful curve fit.

By UniProt entry, the sequences of proteins in these tests, tags left out.
UniProt P18054, whole entry, looked up: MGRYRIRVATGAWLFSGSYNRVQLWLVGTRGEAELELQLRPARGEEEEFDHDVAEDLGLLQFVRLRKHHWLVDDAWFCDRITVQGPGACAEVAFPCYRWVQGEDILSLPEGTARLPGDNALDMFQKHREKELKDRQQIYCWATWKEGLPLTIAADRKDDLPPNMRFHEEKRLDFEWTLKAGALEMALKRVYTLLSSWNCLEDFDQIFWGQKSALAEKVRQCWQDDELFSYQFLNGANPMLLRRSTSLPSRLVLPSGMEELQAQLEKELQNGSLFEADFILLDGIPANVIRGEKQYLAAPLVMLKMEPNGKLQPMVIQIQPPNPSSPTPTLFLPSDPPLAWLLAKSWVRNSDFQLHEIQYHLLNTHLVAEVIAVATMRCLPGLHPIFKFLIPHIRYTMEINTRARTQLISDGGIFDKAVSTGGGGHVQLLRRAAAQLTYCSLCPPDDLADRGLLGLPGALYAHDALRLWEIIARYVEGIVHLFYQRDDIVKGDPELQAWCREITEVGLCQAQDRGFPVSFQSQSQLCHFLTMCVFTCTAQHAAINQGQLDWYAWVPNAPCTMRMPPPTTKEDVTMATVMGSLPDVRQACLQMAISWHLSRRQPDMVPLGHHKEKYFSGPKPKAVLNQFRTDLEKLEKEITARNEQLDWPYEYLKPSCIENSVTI

biological target: Polyunsaturated fatty acid lipoxygenase ALOX12 (Homo sapiens) (UniProt P18054); experiment: Primary qHTS assay for inhibitors of human arachidonate 12S-lipoxygenase (ALOX12): Round 2; details: purified 12hLO, xylenol orange hydroperoxide absorbance; activity change, negative = inhibition: at 108 µM (top of the series) unless noted
How it was run: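 Hydroperoxide product was detected by ferrous iron/xylenol orange as the 573 to 405 nm absorbance ratio. Arachidonic acid at 40 uM (final) was turned over for 30 min at room temperature by 150 nM human 12hLO, pH 7.0 Hepes buffer, after 15 min compound preincubation.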
% is scaled to controls: 0 for no effect and ±100 for the full control effect; potency is read from the fitted curve at half-maximal effect.

SMILES	Potency	activity change, negative = inhibition
COc1cccc(CNC(=O)Nc2cc(C(=O)NCc3cccc(F)c3)ccc2N2CCCC2)c1	inconclusive: 141 µM [inhibitor, partial curve, poor fit]	
c1ccc2c(c1)nc(NCCN1CCOCC1)c1nncn12	inconclusive: 89.1 µM [inhibitor, single point]	
N#Cc1ccc(OCCOc2ccc3ccc(=O)oc3c2)cc1	inconclusive: 79.4 µM [inhibitor, partial curve, poor fit]	
Cn1c(=O)c2c(nc(N3CCCCC3)n2CCCNC2=NCCCC2)n(C)c1=O	inconclusive: 25.1 µM [inhibitor, partial curve, poor fit]	
Cc1cccc2cc(CN(Cc3ccco3)C(=O)NC3CCCCC3)c(=O)[nH]c12	inconclusive: 89.1 µM [inhibitor, single point]	
CCCCn1c(N)c(N(CC(C)C)C(=O)CSc2ccc([N+](=O)[O-])cc2)c(=O)[nH]c1=O	inconclusive: 44.7 µM [inhibitor, partial curve, poor fit]	
Cc1ccc2nc(NC(=O)CSc3nc4ccccc4o3)sc2c1	inconclusive: 44.7 µM [inhibitor, partial curve, poor fit]	
C[C@H](O)[C@@H]1CN2CCc3c([nH]c4c(-c5ccccc5)cccc34)[C@@H]2C[C@@H]1N(C)C(=O)NC1CCCCC1		inactive: 2.61%
Cc1ccc(NC(=O)c2cccnc2)cc1C		inactive: 6.82%
Cc1nc(-c2cccc(NC(=O)c3ccc(Cl)c(S(=O)(=O)N4CCCC4)c3)c2)cs1	inconclusive: 50.1 µM [inhibitor, partial curve, poor fit]	
O=C(Cn1ccc2ccccc21)Nc1ccc2c(c1)OCO2	inactive and inconclusive: 50.1 µM [inhibitor, partial curve, poor fit]	
COc1ccc(-c2noc(C(C)NC(=O)c3ccccc3Cl)n2)cc1 (stereo unspecified)		inactive: 15.8%
CCOC(=O)CSC1=NC(=O)/C(=C\c2ccc(OC(C)=O)cc2)S1	inconclusive: 39.8 µM [inhibitor, full curve, poor fit]	
c1cc(-c2ccoc2)n2ccnc2c1	inconclusive: 126 µM [inhibitor, single point]	
Cc1ccc(C(C)NC(=S)NC2CCCCC2)c(C)c1 (stereo unspecified)	inconclusive: 44.7 µM [inhibitor, partial curve, poor fit]	
C=CCC1CCC/C(=N\NS(=O)(=O)c2ccc(C)cc2)C1 (stereo unspecified)	inconclusive: 50.1 µM [inhibitor, partial curve, poor fit]	
CC(C)C[C@@H](N)C(=O)N1CCC2(CC1)Nc1ccccc1NC2=O	inconclusive: 3.16 µM [inhibitor, partial curve]	
CC(NC(=O)c1ccc(NC(=O)C2CC2)s1)c1ccc(Cl)cc1 (stereo unspecified)	inconclusive: 44.7 µM [inhibitor, partial curve, poor fit]	
O=C(Nc1ccccn1)c1cccc(S(=O)(=O)N2CCCc3ccccc32)c1	inconclusive: 126 µM [inhibitor, single point]	
CC(C)CC(=O)Nc1ncc([N+](=O)[O-])s1	inconclusive: 35.5 µM [inhibitor, partial curve, poor fit]	
COc1ccc([C@H]2C[C@@H](O)[C@@H](O)[C@@H]2NS(=O)(=O)c2ccc(C(F)(F)F)cc2)cc1		inactive: 0.101% [at 176 µM]

SMILES	Potency	activity change, negative = inhibition
Cc1nnc(SCC(=O)N2CCN(S(=O)(=O)c3ccccc3)CC2)[nH]c1=O	inconclusive: 31.6 µM [inhibitor, partial curve, poor fit]	
COc1ccc(Cc2c(-c3ccccc3)nc3cc(C)c(Br)c(C)n23)c(C)c1		inactive: -36.5%
CC(C)(C)c1ccc(C(=O)N(C2CCCCC2)C2CCCCC2)cc1	inconclusive: 0.501 µM [inhibitor, full curve, poor fit]	
O=C1NCc2ccccc2CC12CCN(Cc1ccc(Oc3ccccc3)cc1)C2 (stereo unspecified)	active: 35.5 µM	
NS(=O)(=O)c1ccc(NN=C2CCCC2)c([N+](=O)[O-])c1		inactive: 61.2%
O=C(NC1CCCc2c1[nH]c1ccccc21)c1cn(C2CC2)c(=O)c2ccccc12 (stereo unspecified)	inconclusive: 44.7 µM [inhibitor, single point]	
CN(C(=O)CC1C(=O)NCCN1Cc1ccccc1F)C1CCOCC1 (stereo unspecified)	inconclusive: 35.5 µM [inhibitor, partial curve, poor fit]	
COC(=O)c1c(NS(=O)(=O)c2cccs2)sc2c1CCCC2	inconclusive: 63.1 µM [inhibitor, partial curve, poor fit]	
NC(=O)[C@H]1CC2(CC(c3cccc(NC(=O)COc4ccc(Cl)cc4)c3)=NO2)CN1C(=O)c1ccccc1C(=O)c1ccccc1 (stereo partly specified)	inconclusive: 4.47 µM [inhibitor, full curve, poor fit]	
O=C(CSc1ccc(Br)cc1)Nc1ccccc1Oc1ccccc1	inconclusive: 89.1 µM [inhibitor, single point]	
COc1ccccc1Cn1c(=S)[nH]c2cc(C(=O)N3CCN(C)CC3)ccc2c1=O	inconclusive: 112 µM [inhibitor, single point]	
COc1cccc(-c2cc3c(=O)n(CC(O)c4ccccc4)ccn3n2)c1 (stereo unspecified)		inactive: 24.2%
C=CCn1c(CN2C[C@@H]3C(C(=O)N(C)C)[C@@H]3C2)nc2ccccc21 (stereo partly specified)		inactive: 50.1%
Fc1ccccc1Cn1nnc2c(-n3ccnc3)ncnc21		inactive: 0%
Fc1ccc(/C=N/N2CCCCC2)c(F)c1	inconclusive: 100 µM [inhibitor, single point]	
O=C(NCCSc1c(-c2ccc(Br)cc2)[nH]c2ccccc12)c1ccc(S(=O)(=O)N2CCOCC2)cc1		inactive: -17.2%
FC(F)(F)c1cccc(CN2CCSCC2)c1	inconclusive: 0.398 µM [inhibitor, full curve, poor fit]	
COc1cc(C(C)=O)ccc1OCCCN1CCC(c2noc3cc(F)ccc23)CC1	inactive and inconclusive: 112 µM [inhibitor, single point]	
Cc1nn(Cc2ccc(Cl)cc2)c(C)c1NC(=O)c1cc(C(C)C)on1		inactive: 12.6%
Clc1cccc(-n2ncc3c(NCCCc4ccccc4)ncnc32)c1	inconclusive: 89.1 µM [inhibitor, partial curve, poor fit]	

Two successive records out of the list so far, quoted:
SMILES	Potency	activity change, negative = inhibition
Cc1nn(Cc2ccc(Cl)cc2)c(C)c1NC(=O)c1cc(C(C)C)on1		inactive: 12.6%
Clc1cccc(-n2ncc3c(NCCCc4ccccc4)ncnc32)c1	inconclusive: 89.1 µM [inhibitor, partial curve, poor fit]	
